Primary screen of a compound library

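Phenotypic screen: M. tuberculosis growth, glucose 7H9 medium, 3 days; the read-out is not stated. Concentration: 500 µM. Higher reads as more growth inhibition (inferred: compounds with an IC50 in retests scored well above the rest). Of about 18,000 compounds tested this way, about 1,400 (7.9%) reached 50% or more in at least one test.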

The filed quantity is “Percent Effect” (%).
The record does not define 0% and 100%; most values in the screen are far below 50% and negative numbers occur (in some assays of this library far below -100).
Compounds were drawn at random from those tested, without regard to their results.

CN(C)c1ncc(CNC(=O)C2CCC2)n1C gave 1.812%. For CNC(=O)[C@@H](C)Nc1ccc(C(F)(F)F)cn1 the result was 64.81%. With CCOc1cccc(Cn2cnc(CC)cc2=O)n1 the screen gave 75.83%. Cc1nn(CC(=O)N[C@@H]2CCNC[C@H]2O)c(C)c1C gave 6.784%. For CC1Nc2ncccc2NC1=O (configuration not stated) the result was 1.658%. For Cc1c[nH]c(CN(C)C(=O)CCCN2CCCC2=O)n1 the result was -16.05%.

CN(C)C1CCN(CC(=O)NCCSc2cnn[nH]2)C1 (configuration not stated) read -2.253%. With CCNC(=O)C(C)NC(=O)NCc1ccnc(OC)c1 (configuration not stated) the screen gave -8.256%. OC1(C2CCCCC2)CCNCC1 read -13.16%. Result for CCC(Nc1cccc(OC)c1)C(=O)NCCCN (configuration not stated) was 44.44%. For CC1(C)CC(C(=O)NCCNc2cccnc2)CCO1 (configuration not stated) the result was -0.1667%. For CC(CC(C)(C)O)NCCSc1cnn[nH]1 (configuration not stated) the result was 2.353%.

Result for O=C(NC1CC1)N1CCSCC1CCO (configuration not stated) was -3.239%. For CNCc1n[nH]c(=O)n1-c1ccc(C)c(Cl)c1 the result was 16.03%. CNCc1nc2ccccc2n1CCO gave 6.727%. For Cc1n[nH]c(SCC(=O)NCCCc2ncc[nH]2)n1 the result was 14.1%. Result for COCc1nn(CC(O)c2cccc(F)c2)c(=O)o1 (configuration not stated) was 9.227%. Cc1cc(NC(=O)N2CCS(=O)(=O)CC2)c(Cl)cc1F gave 16.41%.

OCC1CCN(Cc2cc(F)cc3cccnc23)CC1 read -1.086%. N#Cc1sccc1N1CCNCC1 gave 27.17%. With CC(C)=CCNC(=O)Nc1ncnn1C the screen gave -0.05041%. Result for Cc1cc(C)c(C(=O)N2CCC(O)C2)c(=O)[nH]1 (configuration not stated) was -17.08%. COCC(C)NC(=O)c1cnn(C)c1 (configuration not stated) gave 5.208%. Result for COCc1ncc(CO)s1 was 6.873%.

For CC(CO)NC(=O)CN(c1cccc(F)c1)S(C)(=O)=O (configuration not stated) the result was 0.6861%. Result for Cc1ncc2c(n1)CCN(Cc1ncc(Cl)n1C)C2 was 0.1261%. Result for CCN(C)c1ccc(CN)cc1F was -11.36%. Result for NCc1ccc(C(=O)NCCCc2ncc[nH]2)cc1 was 28.11%. c1cn(C2CNC2)nn1 gave -0.4867%. With O=C(NCCCN1CCOCC1)NCc1ccsc1 the screen gave 12.22%.

CCc1nc(N2CCN(C)C(CCO)C2)ncc1C (configuration not stated) read 30.18%. Cc1oncc1CN1C[C@@H](F)C[C@H]1CN gave 4.266%. Result for COc1ccc(COCCNC(C)=O)cc1 was 21.53%.

Data taken from ChEMBL document CHEMBL3988442, “University of Dundee, Small-Polar-MMV Screening Library” (2021).